This is an account of results in patent publication US20260217821A1 (SPH BIOTHERAPEUTICS SHANGHAI, published 2026).

The chains behind the UniProt entries cited, without tags or fusion partners. Residues count along the entry.
UniProt Q01973, residues 30-403: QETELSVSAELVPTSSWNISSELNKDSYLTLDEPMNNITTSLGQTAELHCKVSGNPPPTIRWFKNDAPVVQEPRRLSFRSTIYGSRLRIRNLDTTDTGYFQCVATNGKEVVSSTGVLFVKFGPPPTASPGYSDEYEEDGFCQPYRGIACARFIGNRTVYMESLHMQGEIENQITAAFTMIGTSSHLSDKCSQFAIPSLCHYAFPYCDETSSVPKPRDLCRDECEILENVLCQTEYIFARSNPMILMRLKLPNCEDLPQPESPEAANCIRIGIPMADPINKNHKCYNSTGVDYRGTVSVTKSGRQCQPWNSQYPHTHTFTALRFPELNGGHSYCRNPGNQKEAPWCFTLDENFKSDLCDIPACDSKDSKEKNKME

Experiment [1] addresses PE-labeled ROR1 protein (UniProt Q01973). Kind of experiment: flow cytometry of CAR-transduced PBMCs stained with PE-labeled ROR1 protein (FIG. 15). In general terms: A flow cytometer gives signals particle by particle.
Experiment [2] shares this target. The experiment can be described thus: flow cytometry of CAR-transduced T cells stained with ROR1 protein (FIG. 15).
For experiment [3], the target named is T1, recombinant ROR1 protein (UniProt Q01973 30-403, limits assumed).
T1 construct: also called his-tagged ROR1; not shown: his tag
Kind of experiment: ELISA with periplasmic extracts, OD450 (FIGS. 6A-6B). (In general: An ELISA detects its analyte on a solid surface through an enzyme-linked reagent.)

The target of experiment [4] is T1, recombinant ROR1 protein. Kind of experiment: ELISA with purified protein, dilution series (FIGS. 8A-8B).
In experiment [5] the target is T1, recombinant ROR1 protein. Kind of experiment: specificity ELISA at 3 µg/ml, HRP anti-HA detection (FIGS. 9A-9B).
Experiment [6] deals with T1, recombinant ROR1 protein. Kind of experiment: ELISA with purified protein, dilution series (FIG. 8A).
In experiment [7] the target is T1, recombinant ROR1 protein. The experiment can be described thus: specificity ELISA at 3 µg/ml, HRP anti-HA detection (FIG. 9A).
Experiment [8] deals with T1, recombinant ROR1 protein. Kind of experiment: ELISA with periplasmic extracts, OD450 (FIG. 6A).
Experiment [9] has as its target T1, recombinant ROR1 protein. The experiment can be described thus: specificity ELISA at 3 µg/ml, HRP anti-HA detection (FIG. 9B).
Experiment [10] has as its target T1, recombinant ROR1 protein. Kind of experiment: ELISA with periplasmic extracts, OD450 (FIG. 6B).
Experiment [11] deals with T1, recombinant ROR1 protein. The experiment can be described thus: ELISA with purified protein, dilution series (FIG. 8B).

No constants are given. Whether binding was seen depends on the method and setting. Some entries that bind do so weakly or less than the wild type.

B1: hu5-26 ROR1 VHH CAR (other)
chain: QVQLVESGGGLVQPGGSLRLSCAASGFTLDLYAIGWFRQAPGKERGLVSCISSGGSTNYAESVKGRFTISRDNSKNTVYLQMNSLRSEDTAVYYCVRSVPSCGSYYFPPRNMNYWGQGTLVTVSSIEVMYPPPYLDNEKSNGTIIHVKGKHLCPSPLFPGPSKPFWVLVVVGGVLACYSLLVTVAFIIFWVKRGRKKLLYIFKQPFMRPVQTTQEEDGCSCRFPEEEEGGCELRVKFSRSADAPAYKQGQNQLYNELNLGRREEYDVLDKRRGRDPEMGGKPRRKNPQEGLYNELQKDKMAEAYSEIGMKGERRRGKGHDGLYQGLSTATKDTYDALHMQALPPR
B1: the binding result in [1] and in experiment [2] was “binds” in each case.

B2: 5-95 (VHH)
VHH: QVQLQESGGGLVQPGGSLRLSCAASGFTFSTYSMTWVRQAPGKGLEWVSDINSGGSVAYYTDSVKGRFTASRDNAKNTLYLQMNSLKPEDTAVYYCYEGGYHGGSPRGHGTQVTVSS
notes: not shown: one his tag and one HA tag at the C-terminus
As for B2, the binding result in [3], in [4] and in experiment [5] was “binds” each time.

B3: 5-26 (VHH)
VHH: QVQLQESGGGLVQPGGSLRLSCAASGFTLDLYAIGWFRQAPGKERERVSCISSGGSTNYAESVKGRFTISRDNGKNTVYLQMNSLKPEDTAVYYCVRSVPSCGSYYFPPRNMNYWGKGTQVTVSS
notes: Alpaca VHH from the phage library; not shown: one his tag and one HA tag at the C-terminus
As to B3, the binding result in experiment [6], in experiment [7] and in experiment [8] was “binds” each time.

B4: 5-09 (VHH)
VHH: QVQLQESGGGLVQPGGSLRLSCAASGFTLDDYAIGWFRQAPGKERERISCISSGGNTNYADSVKGRFTLSRDNAKNTVYLQMYSLKPEDTAVYYCTASIPSCASYYFPPRNMDYWGKGTQVTVSS
notes: also called 5-9; not shown: one his tag and one HA tag at the C-terminus
For the molecule B4, the binding result in [3], in [4] and in experiment [5] was “binds” in each case.

B5: 4-92 (VHH)
VHH: QVQLQESGGGLVQPGGSLRLSCAASGFAFSSRAMSWVRQAPGKGLEWVSDINYDGAWTYYADSVKGRFTISRDNAKNTLYLQMNSLKPEDTAVYFCTDPWSIDGWGQGTQVTVSS
notes: as for B3
For the molecule B5, the binding entry in [9], in experiment [10] and in experiment [11] was “binds” each time.
